Reference: article PMC6453957, “Specific inhibition of splicing factor activity by decoy RNA oligonucleotides”
These are yes or no findings as the source states them, for the method shown. Binding seen in cells or lysates may run through a third protein. Some results given as binding are weak or reduced against the parent protein; the word gives no strength. Where a sequence is shown, tags or fusion partners need not be part of it.

Biological target: T1, Flag-RBFOX2 (UniProt O43251)
T1 sequence: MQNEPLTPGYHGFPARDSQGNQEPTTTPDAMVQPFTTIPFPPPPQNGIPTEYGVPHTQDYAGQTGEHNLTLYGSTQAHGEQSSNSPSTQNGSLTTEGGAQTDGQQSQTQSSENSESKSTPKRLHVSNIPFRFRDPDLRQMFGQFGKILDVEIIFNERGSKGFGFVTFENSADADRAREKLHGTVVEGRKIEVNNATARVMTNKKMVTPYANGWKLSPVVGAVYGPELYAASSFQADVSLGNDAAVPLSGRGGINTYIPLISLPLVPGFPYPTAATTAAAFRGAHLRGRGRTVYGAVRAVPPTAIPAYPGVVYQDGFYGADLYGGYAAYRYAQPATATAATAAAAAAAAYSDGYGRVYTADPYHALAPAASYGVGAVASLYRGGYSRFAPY
Experiment: co-IP; anti-Flag antibody on protein G-sepharose, overnight with nuclear extract of HEK293 cells transfected with pCDNA3-Flag-RBFOX2 and then with RBFOXi or SCRM oligonucleotide; four washes with nuclear extract buffer; immunoblot

binding: binds
B1: hnRNP M (protein, UniProt P52272 1-730)
chain: MAAGVEAAAEVAATEIKMEEESGAPGVPSGNGAPGPKGEGERPAQNEKRKEKNIKRGGNRFEPYANPTKRYRAFITNIPFDVKWQSLKDLVKEKVGEVTYVELLMDAEGKSRGCAVVEFKMEESMKKAAEVLNKHSLSGRPLKVKEDPDGEHARRAMQKVMATTGGMGMGPGGPGMITIPPSILNNPNIPNEIIHALQAGRLGSTVFVANLDYKVGWKKLKEVFSMAGVVVRADILEDKDGKSRGIGTVTFEQSIEAVQAISMFNGQLLFDRPMHVKMDERALPKGDFFPPERPQQLPHGLGGIGMGLGPGGQPIDANHLNKGIGMGNIGPAGMGMEGIGFGINKMGGMEGPFGGGMENMGRFGSGMNMGRINEILSNALKRGEIIAKQGGGGGGGSVPGIERMGPGIDRLGGAGMERMGAGLGHGMDRVGSEIERMGLVMDRMGSVERMGSGIERMGPLGLDHMASSIERMGQTMERIGSGVERMGAGMGFGLERMAAPIDRVGQTIERMGSGVERMGPAIERMGLSMERMVPAGMGAGLERMGPVMDRMATGLERMGANNLERMGLERMGANSLERMGLERMGANSLERMGPAMGPALGAGIERMGLAMGGGGGASFDRAIEMERGNFGGSFAGSFGGAGGHAPGVARKACQIFVRNLPFDFTWKMLKDKFNECGHVLYADIKMENGKSKGCGVVKFESPEVAERACRMMNGMKLSGREIDVRIDRNA
